PubChem BioAssay AID1259254 – NCATS – 2017
Aim: 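Genome-wide screen for genes that prevent DNA re-replication in cancer cells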 (primary screen). Cells: human HCT116 colorectal cancer cells. Reagent: single siRNA against human genes. Timing: 3 days. Measurement: 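Nuclei stained with Hoechst and imaged; cell-cycle phase assigned by DNA content; G2 share scaled per plate, non-targeting siRNA 0%, GMNN siRNA 100%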. Direction: G2 robust z-score: higher = more G2 cells, more excess DNA replication. Call rule: 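An siRNA counts as active if its G2 robust z-score lies at least 5 MADs above the screen median; here such calls match roughly 38% of GMNN control or more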.
The deposit covers about 59,000 reagents; shown is an unselected part. Over the whole deposit, about 1,550 (2.6%) are marked active. 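G2 share is only a proxy for re-replication; each gene was hit by three separate siRNAs, and active genes were retested.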 Further read-outs or replicates are left out here. Not given: the amount of reagent.

no.	Target gene	PubChem SID	G2 robust z-score	Outcome
1	HSPA1B (GeneID 3304)	SID160775374	-0.298	inactive
2	HSPA1B (GeneID 3304)	SID160775375	-0.537	inactive
3	HSPA1B (GeneID 3304)	SID160775376	-0.0294	inactive
4	GBP4 (GeneID 115361)	SID160755198	2.13	inactive
5	GBP4 (GeneID 115361)	SID160755199	5.04	active
6	GBP4 (GeneID 115361)	SID160755200	-0.943	inactive
7	LIMK2 (GeneID 3985)	SID160776628	-0.892	inactive
8	LIMK2 (GeneID 3985)	SID160776629	-1.34	inactive
9	LIMK2 (GeneID 3985)	SID160776630	2.06	inactive
10	GUCD1 (GeneID 83606)	SID160751242	0.596	inactive
11	GUCD1 (GeneID 83606)	SID160751243	0.127	inactive
12	GUCD1 (GeneID 83606)	SID160751244	-0.629	inactive
13	DUSP7 (GeneID 1849)	SID160757282	4.44	inactive
14	DUSP7 (GeneID 1849)	SID160757293	-0.031	inactive
15	DUSP7 (GeneID 1849)	SID160757304	2.2	inactive
16	COL8A2 (GeneID 1296)	SID160732457	4.88	inactive
17	COL8A2 (GeneID 1296)	SID160746229	1.92	inactive
18	COL8A2 (GeneID 1296)	SID160746240	0.237	inactive
19	CD58 (GeneID 965)	SID160735243	4.64	inactive
20	CD58 (GeneID 965)	SID160739527	-0.436	inactive
21	CD58 (GeneID 965)	SID160739537	2.03	inactive
22	GPR42 (GeneID 2866)	SID160773724	-1	inactive
23	GPR42 (GeneID 2866)	SID160773731	-0.693	inactive
24	GPR42 (GeneID 2866)	SID160773737	-0.759	inactive
25	UBALD1 (GeneID 124402)	SID160732399	-1.1	inactive
26	UBALD1 (GeneID 124402)	SID160756167	0.0905	inactive
27	UBALD1 (GeneID 124402)	SID160756169	-0.897	inactive
28	BPIFA3 (GeneID 128861)	SID160756810	1.96	inactive
29	BPIFA3 (GeneID 128861)	SID160756811	1.45	inactive
30	BPIFA3 (GeneID 128861)	SID160756812	-0.837	inactive

Single entries from above:
UBALD1 (GeneID 124402) [SID160756169], G2 robust z-score → -0.897
GUCD1 (GeneID 83606) [SID160751242], Outcome = inactive
